At least one read-out could not be matched to a standard name with certainty.
Assay: Steady state kinetics of nitrocefin hydrolysis, purified RG13 proteins, 25° C.
Type: biochemical
Experimental: All kinetic assays were performed at 25° C. in the presence of 100 mM sodium phosphate buffer, pH 7.0. Ten μl of enzyme stock was added to 1.59 ml buffer (containing the saccharide, if desired). After incubation for 30 seconds, 0.4 ml of 5× substrate was added and the absorbance at the appropriate wavelength was recorded using the Cary50 UV-VIS spectrophotometer. The wavelength monitored was 486 nm, 240 nm, and 232 nm for nitrocefin, carbenicillin, and ampicillin respectively. From the initial rate of reaction the kinetic constants were determined using Eadie-Hofstee plots. […] The rate data was consistent with a small hysteretic effect (Brennan et al. 1994) and not substrate inhibition as preincubation of the enzyme with the substrate for one minute prevented the lag from occurring upon addition of more substrate. Therefore, the steady state parameters for nitrocefin hydrolysis in the absence of maltose were determined by measuring the rate at 1-2 minutes (well after the lag) and correcting the substrate concentration by subtracting the amount of substrate hydrolyzed. In all cases the extent of reaction at the point the rate was measured was less than 25%. In the presence of maltose, no lag was observed.

Q: Which kcat/Km (effector maltose 5 mM, 25° C.) does the source give for “RG13 I329W/A96W: RG13 with MBP hinge mutations I329W and A96W; SEQ ID NO: 65” here?
A: 8.9e+06 ± 800000 M⁻¹ s⁻¹

Q: What about the kcat/Km (no effector, pH 7.0, 25° C.) of the same substance?
A: 1.4e+06 ± 300000 M⁻¹ s⁻¹

Source: US9290544B2, “Methods for making and using molecular switches involving circular permutation” (priority 2004, dated 2016)
